Paper PMC11499264, “RNA m5C oxidation by TET2 regulates chromatin state and leukaemogenesis”
The comparison behind a weaker result is the experiment's own reference, which may not be listed here. Tags and fusion partners may be left off the protein sequences shown.

Target: T1, MBD6 MBD domain-MBP-His (Homo sapiens) (UniProt Q96DN6)
T1 sequence (looked up): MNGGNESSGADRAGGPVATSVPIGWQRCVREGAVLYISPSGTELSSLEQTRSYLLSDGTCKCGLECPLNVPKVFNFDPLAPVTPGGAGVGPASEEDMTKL
Experiment: EMSA
Settings: 0-100 uM protein, recombinant protein, residues 1-100, protein details: C-terminal MBP-6xHis, label: 5' 6-FAM, single-stranded DNA

| Sequence | binding result | binding result (5-hydroxymethyl-dC at positions 7, 19, 31) |
| --- | --- | --- |
| TATGACCTGCGGTATGACCTGCGGTATGACCTGCGG [p1-C (ss)] | binds more weakly |  |
| TATGACCTGCGGTATGACCTGCGGTATGACCTGCGG [p1-hm5C (ss)] |  | binds more weakly |
